The source of these data is PMC3369903.

The chains behind the UniProt entries cited, without tags or fusion partners. Residues count along the entry.
UniProt P27512, residues 20-289: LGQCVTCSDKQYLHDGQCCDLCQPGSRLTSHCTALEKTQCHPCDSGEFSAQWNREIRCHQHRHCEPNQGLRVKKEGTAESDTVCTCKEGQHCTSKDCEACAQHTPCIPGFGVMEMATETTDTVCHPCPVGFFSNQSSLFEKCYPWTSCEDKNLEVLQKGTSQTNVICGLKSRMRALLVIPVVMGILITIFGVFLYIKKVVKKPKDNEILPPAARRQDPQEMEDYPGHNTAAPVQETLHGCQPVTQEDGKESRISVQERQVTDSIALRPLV
UniProt O08573: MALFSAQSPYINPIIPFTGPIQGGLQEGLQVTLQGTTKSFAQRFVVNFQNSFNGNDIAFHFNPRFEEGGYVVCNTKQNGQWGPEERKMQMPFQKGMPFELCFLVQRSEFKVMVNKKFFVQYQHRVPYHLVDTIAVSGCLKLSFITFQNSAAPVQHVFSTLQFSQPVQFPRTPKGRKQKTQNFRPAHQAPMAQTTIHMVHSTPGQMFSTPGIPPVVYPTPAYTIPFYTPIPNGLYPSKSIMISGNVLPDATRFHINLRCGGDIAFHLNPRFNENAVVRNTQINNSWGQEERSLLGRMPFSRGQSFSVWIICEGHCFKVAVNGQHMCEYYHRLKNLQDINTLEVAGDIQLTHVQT

The target of test [1] is CD40 (mouse (endogenous in NOD and BALB/c splenic CD4loCD40+ T cells)) (UniProt P27512). Kind of test: co-IP; CD40 immunoprecipitated with FGK45-conjugated magnetic beads from lysates of NOD CD4loCD40+ T cells (CD40 stimulated for 0, 30 minutes, 3 hours or overnight); lysis buffer 20 mM Tris-HCl pH 7.5, 2 mM EDTA, 137 mM NaCl, 0.5% Triton X-100; room temperature; western blot for galectin-9. On the technique in general: A western blot detects proteins with antibodies after separation by electrophoresis.

Test [2] has the same target. As to the kind of experiment: co-IP; CD40 immunoprecipitated with FGK45-conjugated magnetic beads from lysates of BALB/c CD4loCD40+ T cells (control mice, or mice injected with agonistic CD40 antibodies; CD40 stimulated for 0, 30 minutes, 3 hours or overnight); lysis buffer 20 mM Tris-HCl pH 7.5, 2 mM EDTA, 137 mM NaCl, 0.5% Triton X-100; room temperature; western blot for galectin-9.

The target in test [3] is Recombinant human galectin-9 (human) (UniProt O00182). As to the kind of experiment: pull-down; recombinant galectin-9 protein conjugated directly to magnetic beads, incubated with lysates of CD4loCD40+ T cells (isotype or CD40 stimulated overnight); mock treated beads as control; room temperature; western blot for CD40; only the target purified.

No constants are given. Whether binding was seen depends on the method and setting. Binding seen in cells or lysates may run through a third protein. Some entries that bind do so weakly or less than the wild type.

Regarding “galectin-9 (endogenous, mouse) (from UniProt O08573 1-353)”, the binding result in test [1] is given as “binds weakly”; in test [2], “binds”.
As to “CD40 (from UniProt P27512 20-289) (receptor)”, the binding entry in test [3] is “binds”.
